Values from PubChem BioAssay AID1259280 (Sanger Institute, 2017).

Assay: 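Kinase knock-downs that kill colorectal cancer cells or add to anchor drugs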 (primary screen)
Cell system: human SNU407 colorectal cancer cells
Reagent: siRNA pool against human genes
Challenge: anchor drugs BYL719 at 1 µM, cetuximab at 5 µg/ml or trametinib at 10 nM, or DMSO vehicle alone; exposure time not given
Detection: 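Viability per well scaled to a non-targeting pool and averaged over replicates, with a robust z-score from controls and a synergy score per anchor drug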
Scale: viability z-score, no drug: higher = more cells survive the knock-down
Rule for the call: 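a knock-down counts as essential when its robust viability z-score without drug is below -3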
Calls: active = essential (knock-down alone kills cells); inactive = no change without drug
Shown is one part, drawn at random, of 794 reagents tested. Of all reagents, 12 (1.5%) got an active call. 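Calls cover knock-down without drug only; synergy scores stand apart, values above 0.15 being treated as synergy.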 Unmarked entries are inactive. Further read-outs or replicates are left out here. The record does not give: the amount of reagent, the time to read-out.

gene symbol	viability z-score, no drug
AKT1 (AKT serine/threonine kinase 1)	-0.592
PDGFRB (platelet derived growth factor receptor beta)	-0.341
SIK2 (salt inducible kinase 2)	-1.71
SPHK1 (sphingosine kinase 1)	0.54
PRKAG3 (protein kinase AMP-activated non-catalytic subunit gamma 3)	-2.29
PAPSS2 (3'-phosphoadenosine 5'-phosphosulfate synthase 2)	0.901
OBSCN	-0.401
ADCK5 (aarF domain containing kinase 5)	-1.84
LIMK2 (LIM domain kinase 2)	0.266
CDKN1B (cyclin dependent kinase inhibitor 1B)	-0.519
ITPKC (inositol-trisphosphate 3-kinase C)	0.901
MAPK9 (mitogen-activated protein kinase 9)	0.901
LTK (leukocyte receptor tyrosine kinase)	0.784
CLK3 (CDC like kinase 3)	-0.0926
FXR1 (FMR1 autosomal homolog 1)	0.215
ATM (ATM serine/threonine kinase)	0.703
MAP3K15 (mitogen-activated protein kinase kinase kinase 15)	0.901
PRKCE (protein kinase C epsilon)	-0.623
TNK1 (tyrosine kinase non receptor 1)	-0.757
CAMK4 (calcium/calmodulin dependent protein kinase IV)	0.901

3 entries from above in another layout.
| gene symbol | viability z-score, no drug |
| --- | --- |
| LTK (leukocyte receptor tyrosine kinase) | 0.784 |
| CLK3 (CDC like kinase 3) | -0.0926 |
| FXR1 (FMR1 autosomal homolog 1) | 0.215 |
